Record: PubChem BioAssay AID743454 (Peter MacCallum Cancer Centre, 2014)
Test: 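Search for knock-downs that restore vorinostat killing in resistant colon cancer cells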 (primary screen). Cell system: human HCT116-VR colon cancer cells, selected for vorinostat resistance. Reagents: siRNA pool against human genes, 40 nM siRNA pool. Timing: vorinostat for 24 h, read-out about 72 h after transfection. Challenge: vorinostat at 2.5 µM final. Measurement: 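Cell viability by CellTiter-Fluor and caspase 3/7 activity by luminescence, each scaled to mock wells per plate, duplicates averaged, then robust z-scored over all plates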. Scale: viability robust z-score: higher = more viable cells than screen typical; caspase robust z-score: higher = more caspase 3/7 activity than screen typical. Rule for the call: 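a knock-down is a hit when classed RV1 or RV2 for lowered viability, or CA1 or CA2 for caspase activation; those lethal without drug were dropped; hits were retested singly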.
In all, the deposit lists about 18,000 reagents; below is a part drawn at random. 450 of all reagents (2.5%) were called active. 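Single biological run; no consistent viability z cut-off exists, so the class columns, not z-scores, define the calls.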 Reagent sequences are not shown.

The first 2 records as a preview:
DAB2IP (DAB2 interacting protein) — viability hit class = no change; caspase hit class = no change; viability robust z-score = 0; caspase robust z-score = 1.82; call = inactive
EGLN2 (egl-9 family hypoxia inducible factor 2) — viability hit class = no change; caspase hit class = no change; viability robust z-score = 0.64; caspase robust z-score = -0.23; call = inactive

The list itself, repeating the preview:
DAB2IP (DAB2 interacting protein) — viability hit class = no change; caspase hit class = no change; viability robust z-score = 0; caspase robust z-score = 1.82; call = inactive
EGLN2 (egl-9 family hypoxia inducible factor 2) — viability hit class = no change; caspase hit class = no change; viability robust z-score = 0.64; caspase robust z-score = -0.23; call = inactive
KLF14 (KLF transcription factor 14) — viability hit class = no change; caspase hit class = no change; viability robust z-score = -0.18; caspase robust z-score = -0.92; call = inactive
SLC36A1 — viability hit class = no change; caspase hit class = no change; viability robust z-score = -1.75; caspase robust z-score = 0.79; call = inactive
FUBP1 (far upstream element binding protein 1) — viability hit class = no change; caspase hit class = no change; viability robust z-score = 0.24; caspase robust z-score = -0.16; call = inactive
SARNP (SAP domain containing ribonucleoprotein) — viability hit class = no change; caspase hit class = no change; viability robust z-score = -0.17; caspase robust z-score = -0.32; call = inactive
RXFP1 (relaxin family peptide receptor 1) — viability hit class = no change; caspase hit class = no change; viability robust z-score = -0.18; caspase robust z-score = 0.34; call = inactive
MAGED4B (MAGE family member D4B) — viability hit class = no change; caspase hit class = no change; viability robust z-score = 0.81; caspase robust z-score = 1.7; call = inactive
TDRD7 (tudor domain containing 7) — viability hit class = no change; caspase hit class = no change; viability robust z-score = -1.62; caspase robust z-score = 4.78; call = inactive
MICU2 (mitochondrial calcium uptake 2) — viability hit class = no change; caspase hit class = no change; viability robust z-score = 0.62; caspase robust z-score = -0.24; call = inactive
ARL16 (ARF like GTPase 16) — viability hit class = no change; caspase hit class = no change; viability robust z-score = -0.6; caspase robust z-score = 3.33; call = inactive
CSNK2A2 (casein kinase 2 alpha 2) — viability hit class = no change; caspase hit class = no change; viability robust z-score = -2.63; caspase robust z-score = 4.09; call = inactive
TUBG2 (tubulin gamma 2) — viability hit class = no change; caspase hit class = no change; viability robust z-score = -0.38; caspase robust z-score = 1.92; call = inactive
SHANK3 (SH3 and multiple ankyrin repeat domains 3) — viability hit class = no change; caspase hit class = no change; viability robust z-score = -0.32; caspase robust z-score = 1.26; call = inactive
